One data set relates to biotinyl-Val-oxazolone. Put plainly: self-aminoacylation, catalytic enhancement (BVO) (fold over background); higher = more active; k-Seq, kA / k0A0; sequences stand for … in GGGAAUGGAUCCACAUCUACGAAUUC…UUCACUGCAGACUUGACGAAGCUG
The method in brief: (§1)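 The uncatalyzed rate is the low-activity peak of a bimodal Gaussian fit, and catalytic enhancement is median kA divided by it. The kA values came from pseudo-first-order fits, with 1000 bootstraps, of per-sequence fraction reacted measured by streptavidin capture, triplicate qPCR and Illumina sequencing. Mutagenized RNA pools with a 21-nt variable region (0.43 μM) were reacted with each biotinyl-aminoacyl-oxazolone at 2–1250 μM in 50 μL HEPES/NaCl/KCl/MgCl2/CaCl2 buffer with 5% acetonitrile, pH 6.9–7.0, for 90 minutes at room temperature.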

The test system of the next data set is biotinyl-Leu-oxazolone. Put plainly: self-aminoacylation, catalytic enhancement (BLO) (fold over background); higher = more active; k-Seq, kA / k0A0; sequences stand for … in GGGAAUGGAUCCACAUCUACGAAUUC…UUCACUGCAGACUUGACGAAGCUG
The method, boiled down: as §1

A further data set deals with biotinyl-Ile-oxazolone. Put plainly: self-aminoacylation, catalytic enhancement (BIO) (fold over background); higher = more active; k-Seq, kA / k0A0; sequences stand for … in GGGAAUGGAUCCACAUCUACGAAUUC…UUCACUGCAGACUUGACGAAGCUG
The method, boiled down:
as §1

A further data set deals with biotinyl-Met-oxazolone. The data set is described as follows: self-aminoacylation, catalytic enhancement (BMO) (fold over background); higher = more active; k-Seq, kA / k0A0; sequences stand for … in GGGAAUGGAUCCACAUCUACGAAUUC…UUCACUGCAGACUUGACGAAGCUG
The method in brief: as §1

Variants at the background level are over-represented here.

In the case of “AUUACCCUGGUCAUCGCUUGA [Fam2.1 aminoacylation ribozyme variant]”, the self-aminoacylation in the data set on biotinyl-Val-oxazolone was determined as 1.56; in the data set on biotinyl-Leu-oxazolone, 1.92.

In the case of “AUUAACCUAGGUCAUGGGGUG [Fam2.2 aminoacylation ribozyme variant]”, the self-aminoacylation was 2.28 in the data set on biotinyl-Ile-oxazolone, 2.38 in the data set on biotinyl-Val-oxazolone and 3.3 in the data set on biotinyl-Met-oxazolone.

For “AGUACCCUGGUCAACGAGUGA [Fam2.1 aminoacylation ribozyme variant]”, in the data set on biotinyl-Ile-oxazolone, the self-aminoacylation was 2.91.

Consider “CUACUUCAAAUAAUCGGUCAG [Fam1A.1 aminoacylation ribozyme variant]”, for which, in the data set with biotinyl-Ile-oxazolone, the self-aminoacylation was determined as 0.755.

As to “AAAUCUGCUAAUAGUCGCAAG [Fam3.1 aminoacylation ribozyme variant]”, the self-aminoacylation in the data set with biotinyl-Leu-oxazolone stood at 1.82.

For “CAACUUCAAACAAUCGGGCUG [Fam1A.1 aminoacylation ribozyme variant]”, the self-aminoacylation with biotinyl-Met-oxazolone came out at 1.87.

As for “AAUACCCUGGUCCUCGAGUGA [Fam2.1 aminoacylation ribozyme variant]”, the values for the self-aminoacylation with biotinyl-Ile-oxazolone and in the data set with biotinyl-Val-oxazolone were 1.86 and 1.89, respectively.

In the case of “AUUCACCUAGGUCAUCGGGAC [Fam2.2 aminoacylation ribozyme variant]”, the values for the self-aminoacylation with biotinyl-Ile-oxazolone and in the data set with biotinyl-Val-oxazolone were 1.85 and 1.55, respectively.

On to “CCCCACUUCGAGCAAUCGGUC [Fam1B.1 aminoacylation ribozyme variant]”, for which the self-aminoacylation with biotinyl-Met-oxazolone amounted to 1.7.

For “AAGCUGGCUAAUAGUCGCAAG [Fam3.1 aminoacylation ribozyme variant]”, the results for the self-aminoacylation in the data set on biotinyl-Ile-oxazolone, in the data set with biotinyl-Val-oxazolone and in the data set on biotinyl-Met-oxazolone were 1.74, 1.46 and 1.64, respectively.

As for “AUUCACCAAGGUCAUAGGGUG [Fam2.2 aminoacylation ribozyme variant]”, the self-aminoacylation with biotinyl-Ile-oxazolone turned out to be 1.96; in the data set on biotinyl-Val-oxazolone it was 1.79.

For the sequence “CAGUUUGCUAAUAGUCGCGAG [Fam3.1 aminoacylation ribozyme variant]”, the self-aminoacylation in the data set on biotinyl-Met-oxazolone was 1.63.

As for “AUUACCCUGGGCAUCGAGUGU [Fam2.1 aminoacylation ribozyme variant]”, the self-aminoacylation came out at 1.21 in the data set on biotinyl-Ile-oxazolone, 1.46 in the data set with biotinyl-Val-oxazolone and 1.63 in the data set with biotinyl-Leu-oxazolone.

“UUUACCCUGGUCAUCGAGGGA [Fam2.1 aminoacylation ribozyme variant]”: the self-aminoacylation in the data set on biotinyl-Ile-oxazolone was determined as 1.85; in the data set with biotinyl-Leu-oxazolone, 1.84; with biotinyl-Met-oxazolone, 1.86.

For “AUUAACCUGGUCCUCGAGUGA [Fam2.1 aminoacylation ribozyme variant]”, the self-aminoacylation with biotinyl-Val-oxazolone is 1.93.

“AAGUUUGGUAAUAGGCGCAAG [Fam3.1 aminoacylation ribozyme variant]”: in the data set on biotinyl-Ile-oxazolone, the self-aminoacylation was 0.692.

Consider “GCACACUUCAAGCAACCGGUC [Fam1B.1 aminoacylation ribozyme variant]”, for which, in the data set on biotinyl-Met-oxazolone, the self-aminoacylation was found to be 1.9.

“AUUACCAUGCUCAUCGAGUGA [Fam2.1 aminoacylation ribozyme variant]”: the self-aminoacylation with biotinyl-Ile-oxazolone was found to be 1.62; with biotinyl-Val-oxazolone it was 1.71.

As for “AUUACCCUGGUCAUCGAGCCA [Fam2.1 aminoacylation ribozyme variant]”, the self-aminoacylation with biotinyl-Val-oxazolone is 1.87.

With “AAGCUUGGUAAUAGUCGCAAG [Fam3.1 aminoacylation ribozyme variant]”, the results for the self-aminoacylation in the data set on biotinyl-Ile-oxazolone and in the data set with biotinyl-Val-oxazolone were 1.99 and 1.85, respectively.

For the sequence “GGUCACCUAGGUCAUCGGGUG [Fam2.2 aminoacylation ribozyme variant]”, the self-aminoacylation is 4.07 in the data set on biotinyl-Ile-oxazolone, 5.01 in the data set on biotinyl-Val-oxazolone and 4.37 in the data set on biotinyl-Met-oxazolone.

For “AAGUUUGCUAAGAGUCGCAUG [Fam3.1 aminoacylation ribozyme variant]”, the self-aminoacylation was 0.902 in the data set on biotinyl-Ile-oxazolone and 1.1 in the data set with biotinyl-Val-oxazolone.

On to “CUACUUCAACGAAUCGGUCUG [Fam1A.1 aminoacylation ribozyme variant]”, for which the self-aminoacylation in the data set with biotinyl-Ile-oxazolone was found to be 0.847; in the data set with biotinyl-Val-oxazolone it was 0.833.

Consider “CUGUUUCAAACAAUCGGUCUG [Fam1A.1 aminoacylation ribozyme variant]”, for which the self-aminoacylation was found to be 1.24 with biotinyl-Ile-oxazolone, 1.2 with biotinyl-Val-oxazolone and 1.45 in the data set with biotinyl-Met-oxazolone.

“AUACACCUAGGUCAUCGAGUG [Fam2.2 aminoacylation ribozyme variant]”: the self-aminoacylation in the data set on biotinyl-Ile-oxazolone came out at 1.88; with biotinyl-Val-oxazolone, 1.94.

Take “AUUACACUUGUCAUCGAGUGA [Fam2.1 aminoacylation ribozyme variant]”: the self-aminoacylation with biotinyl-Ile-oxazolone turned out to be 2.51; in the data set on biotinyl-Val-oxazolone, 2.59; in the data set with biotinyl-Met-oxazolone, 4.21.

As to “CGACUUCAAACAAUCGGUCUG [Fam1A.1 aminoacylation ribozyme variant]”, the self-aminoacylation in the data set on biotinyl-Ile-oxazolone was 1.48; in the data set with biotinyl-Val-oxazolone, 1.53; in the data set with biotinyl-Met-oxazolone it was 1.71.

As to “AUUACCCUGGGGAUCGAGUGA [Fam2.1 aminoacylation ribozyme variant]”, the values for the self-aminoacylation with biotinyl-Ile-oxazolone and with biotinyl-Val-oxazolone were 1.8 and 1.78, respectively.

“AUUAGCCUGGUCAUCGAGUGG [Fam2.1 aminoacylation ribozyme variant]”: the self-aminoacylation in the data set with biotinyl-Ile-oxazolone stood at 1.73; with biotinyl-Val-oxazolone it was 1.75.

Consider “AAGUUUGCUAAUAGUCCAAAG [Fam3.1 aminoacylation ribozyme variant]”, for which the values for the self-aminoacylation in the data set with biotinyl-Ile-oxazolone and in the data set with biotinyl-Val-oxazolone were 1.21 and 1.18, respectively.

Take “UAGUUUGCUAAUAGUCGCGAG [Fam3.1 aminoacylation ribozyme variant]”: the self-aminoacylation in the data set on biotinyl-Ile-oxazolone was found to be 1.81; in the data set on biotinyl-Val-oxazolone, 1.67; in the data set with biotinyl-Met-oxazolone it was 1.44.

In the case of “CCACACUGCAAGGAAUCGGUC [Fam1B.1 aminoacylation ribozyme variant]”, the self-aminoacylation came out at 1.39 in the data set with biotinyl-Ile-oxazolone and 1.32 with biotinyl-Val-oxazolone.

For the sequence “AUCUCCCUGGUCAUCGAGUGA [Fam2.1 aminoacylation ribozyme variant]”, the self-aminoacylation with biotinyl-Ile-oxazolone was determined as 4.57; with biotinyl-Val-oxazolone, 4.7.

“CCACACUUCAUGCAAUGGGUC [Fam1B.1 aminoacylation ribozyme variant]”: in the data set on biotinyl-Ile-oxazolone, the self-aminoacylation came to 0.751.

Take “AUUCACCUAAGUCAUUGGGUG [Fam2.2 aminoacylation ribozyme variant]”: in the data set with biotinyl-Val-oxazolone, the self-aminoacylation amounted to 1.99.

For the sequence “AUUACCCUGGACUUCGAGUGA [Fam2.1 aminoacylation ribozyme variant]”, the self-aminoacylation with biotinyl-Ile-oxazolone amounted to 1.85.

With “AAUUUUGCUAAAAGUCGCAAG [Fam3.1 aminoacylation ribozyme variant]”, the results for the self-aminoacylation in the data set with biotinyl-Val-oxazolone and in the data set on biotinyl-Met-oxazolone were 1.72 and 1.97, respectively.

As to “CCGCACUUCAAACAAUCGGUC [Fam1B.1 aminoacylation ribozyme variant]”, the self-aminoacylation stood at 1.63 with biotinyl-Ile-oxazolone, 1.97 with biotinyl-Val-oxazolone and 1.94 in the data set with biotinyl-Met-oxazolone.

For “AUUAACCUAGGUCAUCUGGUG [Fam2.2 aminoacylation ribozyme variant]”, the self-aminoacylation with biotinyl-Ile-oxazolone stood at 1.84; in the data set with biotinyl-Val-oxazolone it was 1.71.

As for “AUUUACCUGGUCAUCGAGUGA [Fam2.1 aminoacylation ribozyme variant]”, the self-aminoacylation worked out at 4 in the data set with biotinyl-Ile-oxazolone and 4.29 with biotinyl-Val-oxazolone.

“CAGUCUGCUAAUAGUCGCAAG [Fam3.1 aminoacylation ribozyme variant]”: the figures for the self-aminoacylation in the data set on biotinyl-Val-oxazolone and with biotinyl-Leu-oxazolone were 1.9 and 2, respectively.

For the sequence “AAUACCCUGGUCAUCCAGUGA [Fam2.1 aminoacylation ribozyme variant]”, the figures for the self-aminoacylation with biotinyl-Ile-oxazolone, in the data set with biotinyl-Val-oxazolone and with biotinyl-Met-oxazolone were 3.01, 2.88 and 5.25, respectively.

As for “AUUACCCUGGUCCUCGUGUGA [Fam2.1 aminoacylation ribozyme variant]”, the self-aminoacylation in the data set with biotinyl-Ile-oxazolone was determined as 1.29; in the data set on biotinyl-Val-oxazolone it was 1.76.

For the sequence “AUUACCCUGCUCAUCGUGUGA [Fam2.1 aminoacylation ribozyme variant]”, the self-aminoacylation in the data set with biotinyl-Ile-oxazolone worked out at 1.36; in the data set on biotinyl-Val-oxazolone, 1.64.

With “AUUCACCUACGUCAUCAGGUG [Fam2.2 aminoacylation ribozyme variant]”, the self-aminoacylation in the data set with biotinyl-Ile-oxazolone came to 1.48; in the data set with biotinyl-Val-oxazolone it was 1.72; in the data set on biotinyl-Met-oxazolone it was 2.73.

As for “AUACACCUAGGUCAUCGGGCG [Fam2.2 aminoacylation ribozyme variant]”, in the data set with biotinyl-Ile-oxazolone, the self-aminoacylation is 1.96.

“AUUCACCUAGGUCAACUGGUG [Fam2.2 aminoacylation ribozyme variant]”: the self-aminoacylation with biotinyl-Ile-oxazolone was determined as 1.68; with biotinyl-Val-oxazolone it was 1.83.

Turning to “CUACUUCACACAAUCGGUCUG [Fam1A.1 aminoacylation ribozyme variant]”, the self-aminoacylation with biotinyl-Ile-oxazolone is 0.775; with biotinyl-Val-oxazolone it was 0.811; in the data set with biotinyl-Met-oxazolone it was 0.685.

Take “CCCCUCUUCAAGCAAUCGGUC [Fam1B.1 aminoacylation ribozyme variant]”: the self-aminoacylation in the data set with biotinyl-Ile-oxazolone turned out to be 1.47; in the data set on biotinyl-Val-oxazolone, 1.9; in the data set on biotinyl-Met-oxazolone, 1.57.

With “AUUACCCUGGUCAACGAGUGU [Fam2.1 aminoacylation ribozyme variant]”, the self-aminoacylation in the data set with biotinyl-Ile-oxazolone is 1.84; with biotinyl-Val-oxazolone, 1.85.

Consider “ACUACCCUCGUCAUCGAGUGA [Fam2.1 aminoacylation ribozyme variant]”, for which, in the data set with biotinyl-Ile-oxazolone, the self-aminoacylation worked out at 1.85.

Values taken from the supplement of paper PMC9233669.
